Among the data in article PMC11947994 are binding values, retold here.

Chains of the proteins cited; added tags and fusions are not shown.
UniProt P17931: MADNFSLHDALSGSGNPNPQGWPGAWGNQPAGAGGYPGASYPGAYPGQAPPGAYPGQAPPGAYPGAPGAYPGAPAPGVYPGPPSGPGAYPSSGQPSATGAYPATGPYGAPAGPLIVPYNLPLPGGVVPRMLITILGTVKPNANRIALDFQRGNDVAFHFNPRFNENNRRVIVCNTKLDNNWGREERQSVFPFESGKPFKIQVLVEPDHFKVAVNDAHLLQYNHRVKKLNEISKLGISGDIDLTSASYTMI
UniProt P14618: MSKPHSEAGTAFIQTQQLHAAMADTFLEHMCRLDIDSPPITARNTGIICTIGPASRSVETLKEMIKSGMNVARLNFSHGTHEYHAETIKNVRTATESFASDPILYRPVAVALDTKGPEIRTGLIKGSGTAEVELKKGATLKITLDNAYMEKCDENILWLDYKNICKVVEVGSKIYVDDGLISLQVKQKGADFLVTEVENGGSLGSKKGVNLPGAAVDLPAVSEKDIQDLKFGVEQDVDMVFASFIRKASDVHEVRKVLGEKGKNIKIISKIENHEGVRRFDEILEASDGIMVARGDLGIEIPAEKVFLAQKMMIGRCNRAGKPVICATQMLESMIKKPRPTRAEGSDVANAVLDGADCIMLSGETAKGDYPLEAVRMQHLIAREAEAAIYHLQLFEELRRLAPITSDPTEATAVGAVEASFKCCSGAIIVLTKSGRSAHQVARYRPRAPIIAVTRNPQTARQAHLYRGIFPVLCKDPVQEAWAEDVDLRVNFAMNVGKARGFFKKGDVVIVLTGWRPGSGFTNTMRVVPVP
UniProt P33527: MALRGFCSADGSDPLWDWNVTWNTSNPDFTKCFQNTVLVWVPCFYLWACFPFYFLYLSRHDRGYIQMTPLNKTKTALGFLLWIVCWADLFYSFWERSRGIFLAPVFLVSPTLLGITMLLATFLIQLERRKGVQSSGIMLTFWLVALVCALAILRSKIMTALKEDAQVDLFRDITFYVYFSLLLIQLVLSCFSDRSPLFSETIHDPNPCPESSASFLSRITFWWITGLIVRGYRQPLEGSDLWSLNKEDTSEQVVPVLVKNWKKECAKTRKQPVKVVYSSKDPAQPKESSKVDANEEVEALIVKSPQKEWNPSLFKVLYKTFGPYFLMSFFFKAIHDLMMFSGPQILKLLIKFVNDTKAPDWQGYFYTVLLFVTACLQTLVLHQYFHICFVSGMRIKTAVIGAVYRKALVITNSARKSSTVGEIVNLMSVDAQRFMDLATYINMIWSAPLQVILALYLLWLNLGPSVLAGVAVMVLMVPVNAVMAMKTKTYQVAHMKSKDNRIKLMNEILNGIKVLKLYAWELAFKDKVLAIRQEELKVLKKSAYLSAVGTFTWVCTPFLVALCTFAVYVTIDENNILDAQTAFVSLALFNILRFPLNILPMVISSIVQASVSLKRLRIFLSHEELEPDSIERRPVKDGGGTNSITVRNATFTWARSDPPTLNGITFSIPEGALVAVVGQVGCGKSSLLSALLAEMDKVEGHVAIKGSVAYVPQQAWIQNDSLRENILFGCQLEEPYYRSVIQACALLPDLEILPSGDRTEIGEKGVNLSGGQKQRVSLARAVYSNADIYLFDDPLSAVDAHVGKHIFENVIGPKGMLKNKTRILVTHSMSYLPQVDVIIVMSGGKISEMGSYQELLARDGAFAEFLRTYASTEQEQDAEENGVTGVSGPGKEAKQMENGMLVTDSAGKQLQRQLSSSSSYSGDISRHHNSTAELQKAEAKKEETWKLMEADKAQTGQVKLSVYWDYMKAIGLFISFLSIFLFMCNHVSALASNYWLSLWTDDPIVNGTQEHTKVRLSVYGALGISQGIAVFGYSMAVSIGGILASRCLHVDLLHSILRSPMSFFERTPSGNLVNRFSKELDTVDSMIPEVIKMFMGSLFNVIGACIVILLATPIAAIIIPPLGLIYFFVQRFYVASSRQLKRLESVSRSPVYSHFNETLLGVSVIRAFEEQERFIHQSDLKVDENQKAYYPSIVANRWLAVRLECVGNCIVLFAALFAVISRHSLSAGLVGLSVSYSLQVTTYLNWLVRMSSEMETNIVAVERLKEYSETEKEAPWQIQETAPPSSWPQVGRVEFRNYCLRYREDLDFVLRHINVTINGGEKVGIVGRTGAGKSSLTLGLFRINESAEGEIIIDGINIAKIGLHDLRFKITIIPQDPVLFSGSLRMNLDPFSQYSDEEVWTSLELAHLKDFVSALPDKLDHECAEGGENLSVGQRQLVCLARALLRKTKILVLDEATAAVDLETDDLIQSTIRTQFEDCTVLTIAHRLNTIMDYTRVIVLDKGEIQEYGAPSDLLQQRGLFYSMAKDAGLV

This experiment deals with Flag-Lgals3 (UniProt P17931). Briefly: affinity purification with mass spectrometry; whole-cell lysates immunoprecipitated with Flag antibodies; products analysed by mass spectrometry (IP-MS); cells not named.

These are yes or no findings as the source states them, for the method shown. In cells and extracts the contact can be indirect. These calls come from enrichment with a bait or labelling near it, and not all partners need be listed.

With “PKM2 (found by IP-MS) (from UniProt P14618 1-531) (enzyme)”, the binding result is on record as “binds”.

Turning to ABCC1 (from UniProt P33527 1-1531), the binding entry was “binds”.
